Measurements taken from patent US20040096852A1, “Mixed fibrils” (priority 2000, published 2004).
Where “and” joins values, the source holds several entries; their conditions need not be identical. Equal values may be shown once. Not every detail of the peptide structures is certain; ends, links or a residue may be inferred. Peptide text beside a SMILES is read from it. * marks the point of attachment. Fluorescein(5-Mal) = O=C1OC2(c3ccc(O)cc3Oc3cc(O)ccc32)c2ccc(N3C(=O)CC(*)C3=O)cc21; Dansyl = CN(C)c1cccc2c(S(=O)(=O)*)cccc12

Legend:
[1] = Sedimentation of fibrils by ultracentrifugation (partitioning of labeled peptide); format: physicochemical; settings: for labeled peptide sedimented with the fibrils (pellet) on ultracentrifugation: bovine insulin fibrils, insulin:labeled peptide 40:1
[2] = Fluorescence spectroscopy of labeled peptides free and incorporated into amyloid fibrils; format: physicochemical
[3] = free labeled peptide, no fibrils
[4] = incorporated into TTR10-19 fibrils
[5] = incorporated into TTR105-115 fibrils
[6] = incorporated into insulin fibrils

| Structure (SMILES) | labeled peptide sedimented with the fibrils (pellet) on ultracentrifugation [1] | Δλmax, change in wavelength of maximum fluorescence emission on incorporation into fibrils ([2]; TTR10-19 fibrils) [nm] | Δλmax, change in wavelength of maximum fluorescence emission on incorporation into fibrils ([2]; TTR105-115 fibrils) [nm] | fluorescence anisotropy [2, 3] | λmax, wavelength of maximum fluorescence emission [2, 3] [nm] | fluorescence anisotropy [2, 4] | λmax, wavelength of maximum fluorescence emission [2, 4] [nm] | fluorescence anisotropy [2, 5] | λmax, wavelength of maximum fluorescence emission [2, 5] [nm] | fluorescence anisotropy [2, 6] | λmax, wavelength of maximum fluorescence emission [2, 6] [nm] | Δλmax, change in wavelength of maximum fluorescence emission on incorporation into fibrils ([2]; insulin fibrils) [nm] | labeled peptide partitioned with the fibrils on ultracentrifugation ([1]; TTR10-19 fibrils containing 1% (w/w) labeled peptide) | Δλmax, change in wavelength of maximum fluorescence emission on incorporation into fibrils ([2]; TTR105-115 fibrils, listed as dansyl-TTR105-115) [nm] | fluorescence anisotropy ([2]; free labeled peptide, no fibrils, listed as dansyl-TTR105-115) | fluorescence anisotropy ([2]; incorporated into TTR10-19 fibrils, listed as dansyl-TTR105-115) |
| --- | --- | --- | --- | --- | --- | --- | --- | --- | --- | --- | --- | --- | --- | --- | --- | --- |
| CSCC[C@H](NC(=O)[C@H](CC(C)C)NC(=O)[C@@H]1CCCN1C(=O)[C@@H](N)CSC1CC(=O)N(c2ccc3c(c2)C(=O)OC32c3ccc(O)cc3Oc3cc(O)ccc32)C1=O)C(=O)N[C@H](C(=O)N[C@@H](CCCCN)C(=O)N[C@H](C(=O)N[C@@H](CC(C)C)C(=O)N[C@@H](CC(=O)O)C(=O)N[C@@H](C)C(=O)O)C(C)C)C(C)C (stereo partly shown) [F5M-TTR10-19] (H-C(Fluorescein(5-Mal))PLMVKVLDA-OH) | Approximately 60% | 9 | ~2 | 0.03 | 518 | 0.17 | 527 | 0.22 | 520 | 0.16 | 524 | 6 |  |  |  |  |
| CC[C@H](C)[C@H](NC(=O)[C@@H](NC(=O)[C@H](Cc1ccc(O)cc1)NS(=O)(=O)c1cccc2c(N(C)C)cccc12)[C@@H](C)O)C(=O)N[C@@H](C)C(=O)N[C@@H](C)C(=O)N[C@@H](CC(C)C)C(=O)N[C@@H](CC(C)C)C(=O)N[C@@H](CO)C(=O)N1CCC[C@H]1C(=O)N[C@@H](Cc1ccc(O)cc1)C(=O)N[C@@H](CO)C(=O)O [TTR105-115-dansyl] (Dansyl-YTIAALLSPYS-OH) | More than 70% | 26 | 30 | 0.02 | 502 | 0.16 | 476 | 0.13 | 472 | 0.19 | 470 | 32 | Greater than 90% | 26 | 0.02 and 0.03 | 0.17 |
